Assay results: the supplement of paper PMC10849652
The other results are listed elsewhere or left out.

Chains of the proteins cited; added tags and fusions are not shown. Lines headed by an entry give the natural chain unless they say otherwise; changes in a name come on top.
UniProt Q6NXT1: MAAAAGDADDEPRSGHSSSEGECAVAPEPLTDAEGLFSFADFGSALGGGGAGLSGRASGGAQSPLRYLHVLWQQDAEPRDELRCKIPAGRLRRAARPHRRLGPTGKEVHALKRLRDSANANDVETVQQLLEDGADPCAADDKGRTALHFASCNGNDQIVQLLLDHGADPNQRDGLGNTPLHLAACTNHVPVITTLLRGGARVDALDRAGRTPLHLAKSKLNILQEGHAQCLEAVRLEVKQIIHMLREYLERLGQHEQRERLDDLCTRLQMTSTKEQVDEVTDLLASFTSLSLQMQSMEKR
UniProt Q8IWW6: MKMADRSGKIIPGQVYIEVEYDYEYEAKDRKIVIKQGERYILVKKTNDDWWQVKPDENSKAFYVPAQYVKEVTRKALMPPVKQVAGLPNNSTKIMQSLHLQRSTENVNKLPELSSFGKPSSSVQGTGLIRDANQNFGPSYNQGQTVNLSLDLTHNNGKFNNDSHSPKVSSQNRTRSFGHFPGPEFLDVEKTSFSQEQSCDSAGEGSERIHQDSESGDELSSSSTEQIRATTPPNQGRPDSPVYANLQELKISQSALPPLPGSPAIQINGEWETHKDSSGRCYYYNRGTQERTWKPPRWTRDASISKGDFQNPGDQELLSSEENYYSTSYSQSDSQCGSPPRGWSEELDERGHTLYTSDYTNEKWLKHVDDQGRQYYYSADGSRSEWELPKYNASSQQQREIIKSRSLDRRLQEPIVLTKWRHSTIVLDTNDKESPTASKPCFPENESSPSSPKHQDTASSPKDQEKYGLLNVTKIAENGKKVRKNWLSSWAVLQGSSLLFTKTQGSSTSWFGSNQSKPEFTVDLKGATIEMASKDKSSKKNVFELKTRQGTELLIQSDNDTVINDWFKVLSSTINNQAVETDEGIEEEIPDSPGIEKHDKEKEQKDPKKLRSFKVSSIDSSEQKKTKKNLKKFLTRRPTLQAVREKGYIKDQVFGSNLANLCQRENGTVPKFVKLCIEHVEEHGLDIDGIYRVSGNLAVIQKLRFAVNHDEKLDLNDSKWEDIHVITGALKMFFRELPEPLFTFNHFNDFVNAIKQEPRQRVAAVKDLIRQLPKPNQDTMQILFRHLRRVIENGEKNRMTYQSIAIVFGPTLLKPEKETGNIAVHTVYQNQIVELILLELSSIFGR
UniProt O95445: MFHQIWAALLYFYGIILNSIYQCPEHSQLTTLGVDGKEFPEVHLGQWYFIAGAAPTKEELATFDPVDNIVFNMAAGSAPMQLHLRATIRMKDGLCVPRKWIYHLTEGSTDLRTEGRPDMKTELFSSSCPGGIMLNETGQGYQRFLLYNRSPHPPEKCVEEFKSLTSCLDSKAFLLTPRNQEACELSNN
UniProt Q8N6T3: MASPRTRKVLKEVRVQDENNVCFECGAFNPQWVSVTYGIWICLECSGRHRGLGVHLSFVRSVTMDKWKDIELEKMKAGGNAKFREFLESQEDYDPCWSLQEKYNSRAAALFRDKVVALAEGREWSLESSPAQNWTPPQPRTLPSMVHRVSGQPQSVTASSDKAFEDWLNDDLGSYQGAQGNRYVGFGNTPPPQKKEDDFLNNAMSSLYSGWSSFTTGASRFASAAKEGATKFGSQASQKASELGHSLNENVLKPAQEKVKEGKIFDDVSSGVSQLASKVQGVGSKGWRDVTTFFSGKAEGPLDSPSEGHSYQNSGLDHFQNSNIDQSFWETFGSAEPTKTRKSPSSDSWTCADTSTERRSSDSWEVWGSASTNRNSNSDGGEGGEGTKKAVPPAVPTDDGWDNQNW
UniProt Q9NW15: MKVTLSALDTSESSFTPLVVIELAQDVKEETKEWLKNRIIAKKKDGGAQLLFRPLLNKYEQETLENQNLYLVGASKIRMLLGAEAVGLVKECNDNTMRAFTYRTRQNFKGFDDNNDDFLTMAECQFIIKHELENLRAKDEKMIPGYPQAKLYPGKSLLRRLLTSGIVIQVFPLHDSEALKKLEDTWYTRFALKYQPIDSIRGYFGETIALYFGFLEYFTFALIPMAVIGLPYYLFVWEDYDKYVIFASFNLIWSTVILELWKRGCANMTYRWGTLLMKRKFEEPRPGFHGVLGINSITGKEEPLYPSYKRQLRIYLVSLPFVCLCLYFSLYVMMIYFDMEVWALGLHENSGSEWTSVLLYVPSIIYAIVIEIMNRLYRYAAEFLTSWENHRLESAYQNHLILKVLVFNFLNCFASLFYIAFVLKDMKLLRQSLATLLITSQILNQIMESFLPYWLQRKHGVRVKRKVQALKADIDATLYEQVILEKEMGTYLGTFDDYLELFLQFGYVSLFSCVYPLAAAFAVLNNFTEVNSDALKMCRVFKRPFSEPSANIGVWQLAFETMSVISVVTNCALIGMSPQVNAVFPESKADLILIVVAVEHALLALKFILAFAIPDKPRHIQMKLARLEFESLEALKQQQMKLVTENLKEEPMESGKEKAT
UniProt Q01484: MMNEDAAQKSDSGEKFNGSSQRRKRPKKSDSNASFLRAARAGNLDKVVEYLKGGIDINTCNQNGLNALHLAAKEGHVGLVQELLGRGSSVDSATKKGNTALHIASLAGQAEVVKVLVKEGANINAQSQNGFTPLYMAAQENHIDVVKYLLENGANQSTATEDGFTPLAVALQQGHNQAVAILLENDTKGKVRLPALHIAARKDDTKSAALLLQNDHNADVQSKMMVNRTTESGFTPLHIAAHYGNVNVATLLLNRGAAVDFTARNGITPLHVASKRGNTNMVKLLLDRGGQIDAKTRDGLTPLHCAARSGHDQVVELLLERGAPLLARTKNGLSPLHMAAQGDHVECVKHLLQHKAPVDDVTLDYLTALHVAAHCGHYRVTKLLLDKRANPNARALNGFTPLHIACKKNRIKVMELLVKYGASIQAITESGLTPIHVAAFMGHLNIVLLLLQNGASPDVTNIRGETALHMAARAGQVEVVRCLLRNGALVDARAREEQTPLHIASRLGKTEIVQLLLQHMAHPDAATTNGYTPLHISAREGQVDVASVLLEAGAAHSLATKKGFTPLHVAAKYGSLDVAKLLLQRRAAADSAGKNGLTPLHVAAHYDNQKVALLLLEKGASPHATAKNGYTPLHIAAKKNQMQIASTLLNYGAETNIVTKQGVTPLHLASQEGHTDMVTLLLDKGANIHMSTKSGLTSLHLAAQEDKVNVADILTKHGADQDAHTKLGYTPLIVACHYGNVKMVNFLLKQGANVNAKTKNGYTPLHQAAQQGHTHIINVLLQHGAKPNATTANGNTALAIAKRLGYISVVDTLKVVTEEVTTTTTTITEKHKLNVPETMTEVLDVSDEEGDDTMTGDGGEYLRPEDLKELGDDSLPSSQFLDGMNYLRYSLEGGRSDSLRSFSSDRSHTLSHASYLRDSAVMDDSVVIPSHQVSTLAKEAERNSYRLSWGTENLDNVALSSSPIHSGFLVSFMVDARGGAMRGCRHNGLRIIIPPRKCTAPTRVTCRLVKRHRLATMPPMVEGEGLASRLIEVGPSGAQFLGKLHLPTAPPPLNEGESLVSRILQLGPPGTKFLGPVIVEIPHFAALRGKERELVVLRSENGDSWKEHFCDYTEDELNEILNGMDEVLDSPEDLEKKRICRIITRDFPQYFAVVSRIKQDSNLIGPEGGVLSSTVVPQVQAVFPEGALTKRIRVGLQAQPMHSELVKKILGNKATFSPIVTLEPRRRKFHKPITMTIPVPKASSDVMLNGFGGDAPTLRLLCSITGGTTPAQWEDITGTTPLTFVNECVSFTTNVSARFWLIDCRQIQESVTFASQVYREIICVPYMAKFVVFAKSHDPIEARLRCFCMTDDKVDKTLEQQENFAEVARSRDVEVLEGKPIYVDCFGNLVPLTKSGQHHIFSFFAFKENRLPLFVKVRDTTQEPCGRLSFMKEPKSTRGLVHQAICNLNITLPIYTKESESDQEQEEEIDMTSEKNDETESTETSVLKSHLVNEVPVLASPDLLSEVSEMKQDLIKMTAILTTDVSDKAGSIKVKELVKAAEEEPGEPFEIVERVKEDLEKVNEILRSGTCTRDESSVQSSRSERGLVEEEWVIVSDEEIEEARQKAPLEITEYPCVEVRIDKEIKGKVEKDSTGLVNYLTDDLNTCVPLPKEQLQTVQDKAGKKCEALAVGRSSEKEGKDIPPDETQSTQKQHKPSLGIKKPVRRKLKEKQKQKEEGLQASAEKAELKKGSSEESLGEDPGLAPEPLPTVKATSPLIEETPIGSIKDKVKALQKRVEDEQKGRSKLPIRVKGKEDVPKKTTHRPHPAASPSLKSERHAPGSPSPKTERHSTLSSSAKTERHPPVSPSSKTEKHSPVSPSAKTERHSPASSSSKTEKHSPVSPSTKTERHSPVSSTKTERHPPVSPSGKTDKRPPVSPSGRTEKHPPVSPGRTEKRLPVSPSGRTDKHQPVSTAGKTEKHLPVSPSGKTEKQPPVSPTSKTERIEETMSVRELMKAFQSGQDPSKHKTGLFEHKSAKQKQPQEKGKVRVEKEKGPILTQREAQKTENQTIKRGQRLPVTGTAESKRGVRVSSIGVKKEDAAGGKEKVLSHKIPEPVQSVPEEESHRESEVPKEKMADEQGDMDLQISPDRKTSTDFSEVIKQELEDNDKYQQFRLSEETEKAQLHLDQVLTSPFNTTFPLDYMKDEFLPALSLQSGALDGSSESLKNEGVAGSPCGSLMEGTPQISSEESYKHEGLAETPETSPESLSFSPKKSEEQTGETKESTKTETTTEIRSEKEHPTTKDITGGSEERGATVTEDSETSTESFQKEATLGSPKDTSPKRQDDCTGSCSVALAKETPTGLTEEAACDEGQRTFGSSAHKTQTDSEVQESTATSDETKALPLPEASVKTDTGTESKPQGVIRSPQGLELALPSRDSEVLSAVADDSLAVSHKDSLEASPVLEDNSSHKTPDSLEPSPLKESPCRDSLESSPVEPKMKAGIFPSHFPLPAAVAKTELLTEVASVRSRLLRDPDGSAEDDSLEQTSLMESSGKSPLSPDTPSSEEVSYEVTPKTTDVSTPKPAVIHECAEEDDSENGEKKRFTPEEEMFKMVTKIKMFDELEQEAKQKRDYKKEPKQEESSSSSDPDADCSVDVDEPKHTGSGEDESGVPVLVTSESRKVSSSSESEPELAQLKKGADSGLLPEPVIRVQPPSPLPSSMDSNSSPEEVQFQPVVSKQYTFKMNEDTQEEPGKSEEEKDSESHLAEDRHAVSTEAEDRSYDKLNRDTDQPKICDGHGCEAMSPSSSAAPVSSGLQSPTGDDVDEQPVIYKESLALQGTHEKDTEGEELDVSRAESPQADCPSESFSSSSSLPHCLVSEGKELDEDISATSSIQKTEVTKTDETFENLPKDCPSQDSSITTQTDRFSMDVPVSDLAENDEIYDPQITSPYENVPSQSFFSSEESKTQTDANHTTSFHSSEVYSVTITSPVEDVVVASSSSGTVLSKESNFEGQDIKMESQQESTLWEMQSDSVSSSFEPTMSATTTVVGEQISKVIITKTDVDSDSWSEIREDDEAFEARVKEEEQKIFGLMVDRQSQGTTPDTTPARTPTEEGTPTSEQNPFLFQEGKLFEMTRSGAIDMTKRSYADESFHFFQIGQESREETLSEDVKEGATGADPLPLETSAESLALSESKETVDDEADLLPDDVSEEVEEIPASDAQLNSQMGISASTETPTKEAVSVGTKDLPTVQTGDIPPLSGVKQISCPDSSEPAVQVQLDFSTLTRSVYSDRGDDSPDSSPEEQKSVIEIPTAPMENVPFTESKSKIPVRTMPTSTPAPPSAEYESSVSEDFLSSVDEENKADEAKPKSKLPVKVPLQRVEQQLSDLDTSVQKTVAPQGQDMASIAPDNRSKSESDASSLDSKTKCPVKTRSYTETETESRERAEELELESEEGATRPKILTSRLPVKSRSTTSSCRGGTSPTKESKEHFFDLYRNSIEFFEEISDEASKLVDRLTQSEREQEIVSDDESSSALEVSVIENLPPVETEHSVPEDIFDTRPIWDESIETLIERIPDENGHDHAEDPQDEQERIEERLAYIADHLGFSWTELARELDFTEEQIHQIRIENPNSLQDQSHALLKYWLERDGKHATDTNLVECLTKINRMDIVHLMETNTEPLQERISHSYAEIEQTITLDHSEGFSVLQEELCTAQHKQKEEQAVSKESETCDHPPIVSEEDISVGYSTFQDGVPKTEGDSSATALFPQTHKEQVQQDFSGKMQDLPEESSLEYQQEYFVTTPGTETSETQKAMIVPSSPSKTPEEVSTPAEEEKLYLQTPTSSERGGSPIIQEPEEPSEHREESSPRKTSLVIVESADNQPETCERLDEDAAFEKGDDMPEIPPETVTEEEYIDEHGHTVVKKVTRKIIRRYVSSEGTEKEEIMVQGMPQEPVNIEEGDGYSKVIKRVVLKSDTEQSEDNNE
UniProt Q9BQD7: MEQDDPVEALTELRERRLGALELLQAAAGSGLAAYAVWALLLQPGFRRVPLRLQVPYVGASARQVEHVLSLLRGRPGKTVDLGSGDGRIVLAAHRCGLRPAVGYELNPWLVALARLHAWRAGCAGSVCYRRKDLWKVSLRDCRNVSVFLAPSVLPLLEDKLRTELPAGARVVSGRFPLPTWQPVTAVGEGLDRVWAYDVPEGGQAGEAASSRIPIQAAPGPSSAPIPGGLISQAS

The targets below were run with CON(C)C(=O)N1N=C(c2cc(F)ccc2F)S[C@@]1(CCCN)c1ccccc1 [filanesib] (assay: log2 fold change, soluble protein after heating vs DMSO (PISA); higher = thermal stabilisation; K562 cells, 10 uM, 30 min; active = over 0.2 and 3.5 SD of the protein, either way, in both replicates (recomputed)).
Method in brief: (§1)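 Soluble protein was defined as the supernatant after 21,000xg for 90 min. It came from K562 cells at 2×10^6 cells/mL given 10 μM compound for 30 min, heated in aliquots for 3 min across 48°C-58°C, pooled, and extracted in PBS with 0.5% NP-40 at 4°C, and was quantified by TMTpro 16plex LC-MS/MS with equalised channel sums. Thermal stability against control samples, from duplicates, is reported as log2 fold change.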

log2 fold change, inactive:
ARAP1 (UniProt Q96P48) 0.078
ARHGAP1 (UniProt Q07960) 0.084
AP3D1 isoform 5 (UniProt O14617) 0.023
ARGLU1 (UniProt Q9NWB6) 0.207
ANK3 (UniProt Q12955) 0.109
AP5M1 (UniProt Q9H0R1) 0.004
APOBEC3G (UniProt Q9HC16) 0.066
ARHGEF12 (UniProt Q9NZN5) 0.233
AQR (UniProt O60306) 0.22
ANKRD54 (UniProt Q6NXT1) -0.126
AP1B1 (UniProt Q10567) -0.028
ANXA7 (UniProt P20073) -0.028
ANKRD17 (UniProt O75179) 0.182
APTX (UniProt Q7Z2E3) 0.013
ARHGAP12 (UniProt Q8IWW6) 0.028
ANXA4 (UniProt P09525) -0.003
ARHGAP6 (UniProt O43182) 0.104
ANXA11 (UniProt P50995) -0.113
AP2M1 (UniProt C9JTK4) 0.132
ANPEP (UniProt P15144) 0.265
APOM (UniProt O95445) 0.022
APOH (UniProt P02749) -0.156
AP2S1 (UniProt P53680) 0.037
APRT (UniProt P07741) -0.011
APOC1 (UniProt P02654) 0.077
ARFGAP1 (UniProt Q8N6T3) 0.034
ANGPTL3 (UniProt Q9Y5C1) 0.277
ARHGDIA (UniProt P52565) 0.009
APOBEC3C (UniProt Q9NRW3) 0.251
ANO10 (UniProt Q9NW15) -0.093
ANK2 (UniProt Q01484) -0.052
ARHGDIB (UniProt P52566) -0.016
AP4B1 (UniProt Q9Y6B7) -0.165
ARF3 (UniProt P61204) -0.04
AP2A1 (UniProt O95782) 0.045
AP2A2 isoform 2 (UniProt O94973) 0.064
ANTKMT (UniProt Q9BQD7) -0.197
APOBEC3D (UniProt Q96AK3) 0.263
ANAPC5 (UniProt Q9UJX4) 0.018

The targets below were run with CO[C@H]1C[C@@H]2CC[C@@H](C)[C@@](O)(O2)C(=O)C(=O)N2CCCC[C@H]2C(=O)O[C@H]([C@H](C)C[C@@H]2CC[C@H](n3cnnn3)[C@H](OC)C2)CC(=O)[C@H](C)/C=C(\C)[C@@H](O)[C@@H](OC)C(=O)[C@H](C)C[C@H](C)/C=C/C=C/C=C/1C [zotarolimus] in the same assay as above.
Method in brief: as §1

log2 fold change, inactive:
ARAP1 (UniProt Q96P48) 0.114
ARHGAP1 (UniProt Q07960) 0.038
AP3D1 isoform 5 (UniProt O14617) -0.03
ARGLU1 (UniProt Q9NWB6) 0.025
ANK3 (UniProt Q12955) -0.069
AP5M1 (UniProt Q9H0R1) 0.05
AQR (UniProt O60306) 0.083
ANKRD54 (UniProt Q6NXT1) -0.056
AP1B1 (UniProt Q10567) 0.035
ANXA7 (UniProt P20073) 0.053
ANKRD17 (UniProt O75179) 0.004
APTX (UniProt Q7Z2E3) 0.045
ARHGAP12 (UniProt Q8IWW6) 0.064
ANXA4 (UniProt P09525) -0.064
ANXA11 (UniProt P50995) 0.043
AP2M1 (UniProt C9JTK4) -0.203
ANPEP (UniProt P15144) -0.096
APOM (UniProt O95445) -0.106
APOH (UniProt P02749) -0.696
AP2S1 (UniProt P53680) 0.013
APRT (UniProt P07741) -0.007
APOC1 (UniProt P02654) -0.019
ARFGAP1 (UniProt Q8N6T3) 0.047
ANGPTL3 (UniProt Q9Y5C1) -0.153
ARHGDIA (UniProt P52565) 0.054
APOBEC3C (UniProt Q9NRW3) 0.022
ANO10 (UniProt Q9NW15) -0.001
ANK2 (UniProt Q01484) -0.05
ARHGDIB (UniProt P52566) 0.08
AP4B1 (UniProt Q9Y6B7) 0.159
ARF3 (UniProt P61204) -0.018
AP2A1 (UniProt O95782) 0.033
AP2A2 isoform 2 (UniProt O94973) 0.003
ANTKMT (UniProt Q9BQD7) 0.011
APOBEC3D (UniProt Q96AK3) -0.085
ANAPC5 (UniProt Q9UJX4) 0.043
